Laboratory results: PubChem BioAssay AID1259308 (NCATS, 2017)
Assay: 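Knock-downs that increase output of a recombinant reporter protein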 (primary screen). System: human HEK293 embryonic kidney cells stably expressing firefly luciferase (HEK-CMV-Luc2-Hygro). Knock-down reagent: single siRNA against human genes, 0.8 pmol siRNA per well. Duration: 72 h. Measurement: 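Luciferase light (ONE-Glo) measured on one replicate plate set and viability (CellTiter-Glo) on the other, scaled to a negative control siRNA, with robust z-scores and luciferase per cell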. Scale: total luciferase, z-score and total luciferase, % of control: higher = more reporter protein produced. Call rule: 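Active when the median/MAD z-score for overall luciferase is greater than 3; a gene was taken forward for validation with new siRNAs if at least two of its three siRNAs passed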. Calls: active = raised luciferase; inactive = no rise.
The whole screen tested about 59,000 reagents; this is an unselected part. About 1,510 of all reagents (2.6%) count as active. 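Calls use total luciferase alone and ignore viability, so some active siRNAs may act by altering cell number.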 A number with no mark means an inactive call. Reagents against one gene are numbered here. Not all columns of the deposit are shown.

With BBS9 (GeneID 27241) #1, what was measured?
total luciferase, z-score: -0.934; total luciferase, % of control: 63.3

Which result is listed for BBS9 (GeneID 27241) #2?
total luciferase, z-score: -0.141; total luciferase, % of control: 79.1

Which result is listed for BBS9 (GeneID 27241) #3?
total luciferase, z-score: -1.44; total luciferase, % of control: 53.3

What is on record for ANGPT1 (GeneID 284) #1?
total luciferase, z-score: 0.282; total luciferase, % of control: 87.5

For ANGPT1 (GeneID 284) #2, how do the results read?
total luciferase, z-score: 2.08; total luciferase, % of control: 123

Which result is listed for ANGPT1 (GeneID 284) #3?
total luciferase, z-score: -1.27; total luciferase, % of control: 56.7

How did the screen score RPS10P29 (GeneID 388885) #1?
total luciferase, z-score: -0.0764; total luciferase, % of control: 80.4

With RPS10P29 (GeneID 388885) #2, how do the results read?
total luciferase, z-score: 0.464; total luciferase, % of control: 91.1

Which result is listed for RPS10P29 (GeneID 388885) #3?
total luciferase, z-score: -0.227; total luciferase, % of control: 77.4

With DCAF16 (GeneID 54876) #1, what does the deposit list?
total luciferase, z-score: -0.0968; total luciferase, % of control: 80

For DCAF16 (GeneID 54876) #2, what does the deposit list?
total luciferase, z-score: -0.572; total luciferase, % of control: 70.5

What is on record for DCAF16 (GeneID 54876) #3?
total luciferase, z-score: -0.541; total luciferase, % of control: 71.1

For SPA17 (GeneID 53340) #1, what does the deposit list?
total luciferase, z-score: -0.997; total luciferase, % of control: 62.1

What did the screen give for SPA17 (GeneID 53340) #2?
total luciferase, z-score: 2.9; total luciferase, % of control: 140

What is on record for SPA17 (GeneID 53340) #3?
total luciferase, z-score: -0.412; total luciferase, % of control: 73.7

For TMEM45B (GeneID 120224) #1, how do the results read?
total luciferase, z-score: 4.59 (active); total luciferase, % of control: 173

How did the screen score TMEM45B (GeneID 120224) #2?
total luciferase, z-score: 2.02; total luciferase, % of control: 122

Which result is listed for TMEM45B (GeneID 120224) #3?
total luciferase, z-score: -1.24; total luciferase, % of control: 57.2

For RGL4 (GeneID 266747) #1, how do the results read?
total luciferase, z-score: -0.314; total luciferase, % of control: 75.6

What did the screen give for RGL4 (GeneID 266747) #2?
total luciferase, z-score: -0.37; total luciferase, % of control: 74.5

For RGL4 (GeneID 266747) #3, how do the results read?
total luciferase, z-score: -1.31; total luciferase, % of control: 55.9
